The source of these data is PMC11718245.

Sequences of proteins named here, by UniProt entry; tags and fusion partners are left off.
UniProt P08047: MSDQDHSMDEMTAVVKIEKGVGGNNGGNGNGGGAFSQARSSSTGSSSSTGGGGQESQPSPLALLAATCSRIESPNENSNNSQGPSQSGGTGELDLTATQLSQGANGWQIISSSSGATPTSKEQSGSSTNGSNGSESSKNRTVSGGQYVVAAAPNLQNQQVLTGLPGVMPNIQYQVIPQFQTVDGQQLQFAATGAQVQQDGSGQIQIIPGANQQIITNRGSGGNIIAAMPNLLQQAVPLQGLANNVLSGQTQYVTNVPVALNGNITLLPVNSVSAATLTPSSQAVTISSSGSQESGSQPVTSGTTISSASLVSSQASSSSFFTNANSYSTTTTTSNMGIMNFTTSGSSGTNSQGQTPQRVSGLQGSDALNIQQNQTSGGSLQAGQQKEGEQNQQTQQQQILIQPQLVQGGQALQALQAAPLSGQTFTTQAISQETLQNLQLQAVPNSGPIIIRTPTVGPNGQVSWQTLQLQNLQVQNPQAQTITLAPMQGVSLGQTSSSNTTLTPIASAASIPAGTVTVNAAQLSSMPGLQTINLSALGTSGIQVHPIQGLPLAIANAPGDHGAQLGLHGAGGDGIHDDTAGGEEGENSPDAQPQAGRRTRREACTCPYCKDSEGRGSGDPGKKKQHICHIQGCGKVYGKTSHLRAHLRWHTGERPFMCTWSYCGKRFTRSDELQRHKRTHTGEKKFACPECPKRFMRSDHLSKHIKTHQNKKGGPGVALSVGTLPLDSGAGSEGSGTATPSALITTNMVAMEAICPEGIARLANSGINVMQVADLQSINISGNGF

No constants are given. Whether binding was seen depends on the method and setting. Binding seen in cells or lysates may run through a third protein. A yes stands for co-enrichment or nearness to the bait. Other partners may have been found.

The target of the experiment is FGR (human (endogenous in LoVo)) (UniProt P09769). Put plainly: affinity purification with mass spectrometry; FGR co-immunoprecipitation paired with mass spectrometry; cells not named for this experiment.

As to SP1 (from UniProt P08047 1-785), the binding result was “binds”.
